Source: the supplement of paper PMC8616043
Counter-ions that a name gives are not always drawn. The list shows a part of the results. Single values are uncertain here, since repeats match poorly.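 Human U-2 OS cells stably expressing a GFP sensor with a nuclear import signal and classical export signal were transfected to produce PR50, a 50-repeat proline–arginine dipeptide from ALS/FTD gene C9ORF72. Nuclear-minus-cytoplasm GFP was scaled from DMSO (low) to PR-only (high), scored against plate test wells; strongly negative scores marked PR-reversing hits.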

The compounds below were run on U-2 OS NCT-C biosensor cells expressing PR50 (assay: Z-score of normalised NCT-C biosensor translocation index in PR50-expressing cells; higher = more nuclear biosensor (more disrupted nuclear export)). Details: 3 µM; 24 h.

Row | SMILES | Z-score
1 | CC1=C(C(=O)O)N2C(=O)[C@@H](NC(=O)[C@H](N)C3=CCC=CC3)[C@H]2SC1 [Cephradine] | inactive: -0.276
2 | CCc1c(C)[nH]c2c1C(=O)C(CN1CCOCC1)CC2 (configuration not stated) [Molindone hydrochloride] | inactive: 0.804
3 | CC(C)=CC[C@@H](O)C1=CC(=O)c2c(O)ccc(O)c2C1=O [Shikonin] | inactive: -0.46
4 | NC(=O)C1=CN(C2OC(COP(=O)(O)OP(=O)(O)OC[C@H]3O[C@@H](n4cnc5c(N)ncnc54)C(OP(=O)(O)O)[C@H]3O)C(O)C2O)C=CC1 (some centres not stated) [NADPH  tetrasodium] | inactive: 0.102
5 | CC1=C(/C=C/C(C)=C/C=C/C(C)=C/C(=O)O)C(C)(C)CCC1 [Tretinoin] | inactive: 0.395
6 | CC1=C(/C=C/C(C)=C/C=C/C(C)=C/C(=O)O)C(C)(C)CCC1 [Retinoic acid] | inactive: -0.354
7 | CC1=C(/C=C/C(C)=C/C=C/C(C)=C/C(=O)O)C(C)(C)CCC1 [All trans retinoic acid] | inactive: -0.525
8 | COc1ccc2ccc(=O)oc2c1CC=C(C)C [Osthole] | inactive: 1.42
9 | O=c1cc(-c2ccccc2)oc2cc(O)ccc12 [7-Hydroxyflavone] | inactive: 0.528
10 | CC(=O)Oc1ccccc1C(=O)O [Aspirin (Acetylsalicylic Acid)] | inactive: 0.54
11 | CC(=O)Oc1ccccc1C(=O)O [Acetylsalicylic acid] | inactive: -0.081
12 | CNS(=O)(=O)CCc1ccc2[nH]cc(C3CCN(C)CC3)c2c1 [Naratriptan hydrochloride] | inactive: 0.677
13 | CNS(=O)(=O)CCc1ccc2[nH]cc(C3CCN(C)CC3)c2c1 [Naratriptan·HCl] | inactive: -0.398
14 | O=C(NCC1(c2nc(-c3ccccc3)cs2)CCOCC1)c1cccc(-c2noc(C(F)(F)F)n2)c1 | inactive: 0.324
15 | CCCCCCCCCCCCCC[C@@H](O)[C@@H](O)[C@@H](N)CO [Phytosphingosine] | inactive: -0.542
16 | O=C(O)C(=O)O.[NH-][C@@H]1CCCC[C@H]1[NH-].[Pt+2] [Oxaliplatin] | inactive: -0.158
17 | Cc1ccc(NC(=O)c2ccc(CN3CCN(C)CC3)cc2)cc1Nc1nccc(-c2cccnc2)n1 [Imatinib Mesylate] | inactive: -0.42
18 | Cc1ccc(NC(=O)c2ccc(CN3CCN(C)CC3)cc2)cc1Nc1nccc(-c2cccnc2)n1 [Imatinib mesylate] | inactive: -0.163
19 | Cc1nn(-c2ccccc2)c(C)c1C=NN1CCN(Cc2ccccc2)CC1 | inactive: -0.146
20 | Oc1cc2c(c(Cl)c1O)CCNCC2c1ccccc1 (racemic) [(±)-6-Chloro-PB hydrobromide] | inactive: -0.708
21 | Fc1ccc(CN(C2=NCCN2)c2c(Cl)cccc2Cl)cc1 [IMID-4F  hydrochloride] | inactive: 0.0674

Records 5 to 6, quoted:
Row | SMILES | Z-score
5 | CC1=C(/C=C/C(C)=C/C=C/C(C)=C/C(=O)O)C(C)(C)CCC1 [Tretinoin] | inactive: 0.395
6 | CC1=C(/C=C/C(C)=C/C=C/C(C)=C/C(=O)O)C(C)(C)CCC1 [Retinoic acid] | inactive: -0.354

Remaining list, next part:

Row | SMILES | Z-score
22 | CCOC(=O)O[C@]1(C(=O)OCCl)CC[C@H]2[C@@H]3CCC4=CC(=O)C=C[C@]4(C)[C@H]3[C@@H](O)C[C@@]21C [Loteprednol Etabonate] | inactive: 0.663
23 | c1cnc(N2CCN(Cc3ccc4c(c3)OCO4)CC2)nc1 [Piribedil maleate salt] | inactive: -1.18
24 | C[C@](N)(Cc1ccc(O)c(O)c1)C(=O)O [Methyldopa Sesquihydrate (L-Α-Methyl-Dopa Sesquihyrate)] | inactive: 0.0869
25 | C[C@](N)(Cc1ccc(O)c(O)c1)C(=O)O [L-alpha-Methyl DOPA] | inactive: -0.0357
26 | O=C(O)CNC(=O)C(CS)Cc1ccccc1 (racemic) [DL-Thiorphan] | inactive: -0.317
27 | C[C@H]1c2cccc(O)c2C(=O)C2=C(O)[C@]3(O)C(=O)C(C(N)=O)=C(O)[C@@H](N(C)C)[C@@H]3[C@@H](O)[C@@H]21 [Doxycycline hydrochloride] | inactive: 0.969
28 | C[C@H]1c2cccc(O)c2C(=O)C2=C(O)[C@]3(O)C(=O)C(C(N)=O)=C(O)[C@@H](N(C)C)[C@@H]3[C@@H](O)[C@@H]21 [Doxycycline Monohydrate] | inactive: 0.674
29 | CC(C)NCC(O)COc1ccc(CCOCC2CC2)cc1 (configuration not stated) [Betaxolol·HCl] | active: -2.21
30 | CC(C)NCC(O)COc1ccc(CCOCC2CC2)cc1 (configuration not stated) [Betaxolol hydrochloride] | inactive: 2.98
31 | CC(=O)[C@@]1(O)CC[C@H]2[C@@H]3C[C@H](C)C4=CC(=O)C=C[C@]4(C)[C@@]3(F)[C@@H](O)C[C@@]21C [Fluorometholone] | inactive: 0.677
32 | CCc1nc(N)nc(N)c1-c1ccc(Cl)cc1 [Pyrimethamine] | inactive: -0.241
33 | CN1CC(=O)N2[C@H](c3ccc4c(c3)OCO4)c3[nH]c4ccccc4c3C[C@@H]2C1=O [Tadalafil] | inactive: -0.267
34 | CC(NC(=O)c1ccccc1/N=C/c1c(O)ccc2ccccc12)c1ccccc1 (configuration not stated) [Sirtinol] | inactive: -1.22
35 | C[C@@H]1CC[C@H]2[C@](C)(CO)[C@@H](O)CC[C@]2(C)[C@@]12CC[C@@](CO)(CCO)O2 [Lagochiline] | inactive: -0.666
36 | COc1cccc2oc(-c3ccccc3)cc(=O)c12 [5-Methoxyflavone] | inactive: 0.374
37 | Nc1n[n+]([O-])c2ccccc2[n+]1[O-] [Tirapazamine] | inactive: -0.0348
38 | CCCN1CCCC[C@H]1C(=O)Nc1c(C)cccc1C [Ropivacaine·HCl Monohydrate] | inactive: -1.08
39 | Cc1ccc(S(=O)(=O)N[C@@H](Cc2ccccc2)C(=O)CCl)cc1 [N-p-Tosyl-L-phenylalanine chloromethyl ketone] | inactive: -1.06
40 | Cn1c(=O)[nH]c2ncn(C)c2c1=O [1,7-Dimethylxanthine] | inactive: 0.79
41 | C#CCN[C@@H]1CCc2ccccc21 [Rasagiline Mesylate] | inactive: -0.208
42 | C1COC(NC(C2CC2)C2CC2)=N1 [Rilmenidine hemifumarate] | inactive: -1.07
